Paper PMC11067147
These are yes or no findings as the source states them, for the method shown. Binding seen in cells or lysates may run through a third protein. Some results given as binding are weak or reduced against the parent protein; the word gives no strength.

By UniProt entry, the sequences of proteins in these tests, tags left out.
UniProt Q7Z406: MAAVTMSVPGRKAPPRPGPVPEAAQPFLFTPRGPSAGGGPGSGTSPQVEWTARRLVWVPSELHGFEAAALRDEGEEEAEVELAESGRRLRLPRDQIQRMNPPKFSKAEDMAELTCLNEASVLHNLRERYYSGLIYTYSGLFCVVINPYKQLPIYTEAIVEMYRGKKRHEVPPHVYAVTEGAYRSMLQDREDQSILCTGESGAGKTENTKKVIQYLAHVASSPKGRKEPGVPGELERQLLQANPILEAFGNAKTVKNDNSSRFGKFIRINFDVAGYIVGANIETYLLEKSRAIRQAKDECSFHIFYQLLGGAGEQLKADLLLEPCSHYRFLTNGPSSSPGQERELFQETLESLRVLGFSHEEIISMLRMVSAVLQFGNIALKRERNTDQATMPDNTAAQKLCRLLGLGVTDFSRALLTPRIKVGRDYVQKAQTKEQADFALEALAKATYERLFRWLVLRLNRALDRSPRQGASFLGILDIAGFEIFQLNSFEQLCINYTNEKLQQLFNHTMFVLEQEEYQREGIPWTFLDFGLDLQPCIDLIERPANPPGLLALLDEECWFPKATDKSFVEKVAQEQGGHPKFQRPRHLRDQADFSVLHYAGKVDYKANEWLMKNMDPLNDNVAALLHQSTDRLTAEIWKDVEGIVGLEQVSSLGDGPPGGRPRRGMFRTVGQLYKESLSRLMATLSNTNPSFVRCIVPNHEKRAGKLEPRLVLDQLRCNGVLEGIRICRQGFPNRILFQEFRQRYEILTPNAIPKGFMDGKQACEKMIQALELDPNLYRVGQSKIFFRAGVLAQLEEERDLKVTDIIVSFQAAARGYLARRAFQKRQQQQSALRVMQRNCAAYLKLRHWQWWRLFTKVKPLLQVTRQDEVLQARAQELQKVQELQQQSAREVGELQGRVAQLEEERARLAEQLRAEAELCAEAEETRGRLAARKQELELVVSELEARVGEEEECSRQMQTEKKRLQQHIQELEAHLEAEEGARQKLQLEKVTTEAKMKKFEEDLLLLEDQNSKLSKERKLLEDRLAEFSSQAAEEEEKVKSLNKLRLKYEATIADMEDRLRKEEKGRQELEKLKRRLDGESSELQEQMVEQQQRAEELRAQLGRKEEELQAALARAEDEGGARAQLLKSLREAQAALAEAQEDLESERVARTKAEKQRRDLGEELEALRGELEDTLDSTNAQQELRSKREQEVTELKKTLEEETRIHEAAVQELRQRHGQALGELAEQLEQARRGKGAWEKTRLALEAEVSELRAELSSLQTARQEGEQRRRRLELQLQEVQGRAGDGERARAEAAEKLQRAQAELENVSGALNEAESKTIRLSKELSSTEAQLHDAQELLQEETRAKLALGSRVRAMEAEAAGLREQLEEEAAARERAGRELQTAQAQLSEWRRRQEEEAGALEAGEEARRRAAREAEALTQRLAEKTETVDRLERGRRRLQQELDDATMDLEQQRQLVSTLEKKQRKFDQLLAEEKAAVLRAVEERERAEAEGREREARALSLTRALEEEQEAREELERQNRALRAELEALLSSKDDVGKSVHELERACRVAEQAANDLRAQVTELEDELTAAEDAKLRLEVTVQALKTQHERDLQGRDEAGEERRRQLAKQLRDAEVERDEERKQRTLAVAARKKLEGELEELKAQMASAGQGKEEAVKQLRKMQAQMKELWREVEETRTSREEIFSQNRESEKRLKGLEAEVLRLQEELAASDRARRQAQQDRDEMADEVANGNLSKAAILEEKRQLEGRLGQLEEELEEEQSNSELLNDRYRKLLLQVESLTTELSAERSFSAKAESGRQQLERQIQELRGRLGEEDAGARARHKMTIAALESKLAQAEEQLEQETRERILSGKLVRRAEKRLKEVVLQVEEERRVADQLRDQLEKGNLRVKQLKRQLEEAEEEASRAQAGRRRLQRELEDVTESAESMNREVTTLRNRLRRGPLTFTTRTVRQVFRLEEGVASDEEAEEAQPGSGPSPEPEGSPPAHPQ
UniProt P35579: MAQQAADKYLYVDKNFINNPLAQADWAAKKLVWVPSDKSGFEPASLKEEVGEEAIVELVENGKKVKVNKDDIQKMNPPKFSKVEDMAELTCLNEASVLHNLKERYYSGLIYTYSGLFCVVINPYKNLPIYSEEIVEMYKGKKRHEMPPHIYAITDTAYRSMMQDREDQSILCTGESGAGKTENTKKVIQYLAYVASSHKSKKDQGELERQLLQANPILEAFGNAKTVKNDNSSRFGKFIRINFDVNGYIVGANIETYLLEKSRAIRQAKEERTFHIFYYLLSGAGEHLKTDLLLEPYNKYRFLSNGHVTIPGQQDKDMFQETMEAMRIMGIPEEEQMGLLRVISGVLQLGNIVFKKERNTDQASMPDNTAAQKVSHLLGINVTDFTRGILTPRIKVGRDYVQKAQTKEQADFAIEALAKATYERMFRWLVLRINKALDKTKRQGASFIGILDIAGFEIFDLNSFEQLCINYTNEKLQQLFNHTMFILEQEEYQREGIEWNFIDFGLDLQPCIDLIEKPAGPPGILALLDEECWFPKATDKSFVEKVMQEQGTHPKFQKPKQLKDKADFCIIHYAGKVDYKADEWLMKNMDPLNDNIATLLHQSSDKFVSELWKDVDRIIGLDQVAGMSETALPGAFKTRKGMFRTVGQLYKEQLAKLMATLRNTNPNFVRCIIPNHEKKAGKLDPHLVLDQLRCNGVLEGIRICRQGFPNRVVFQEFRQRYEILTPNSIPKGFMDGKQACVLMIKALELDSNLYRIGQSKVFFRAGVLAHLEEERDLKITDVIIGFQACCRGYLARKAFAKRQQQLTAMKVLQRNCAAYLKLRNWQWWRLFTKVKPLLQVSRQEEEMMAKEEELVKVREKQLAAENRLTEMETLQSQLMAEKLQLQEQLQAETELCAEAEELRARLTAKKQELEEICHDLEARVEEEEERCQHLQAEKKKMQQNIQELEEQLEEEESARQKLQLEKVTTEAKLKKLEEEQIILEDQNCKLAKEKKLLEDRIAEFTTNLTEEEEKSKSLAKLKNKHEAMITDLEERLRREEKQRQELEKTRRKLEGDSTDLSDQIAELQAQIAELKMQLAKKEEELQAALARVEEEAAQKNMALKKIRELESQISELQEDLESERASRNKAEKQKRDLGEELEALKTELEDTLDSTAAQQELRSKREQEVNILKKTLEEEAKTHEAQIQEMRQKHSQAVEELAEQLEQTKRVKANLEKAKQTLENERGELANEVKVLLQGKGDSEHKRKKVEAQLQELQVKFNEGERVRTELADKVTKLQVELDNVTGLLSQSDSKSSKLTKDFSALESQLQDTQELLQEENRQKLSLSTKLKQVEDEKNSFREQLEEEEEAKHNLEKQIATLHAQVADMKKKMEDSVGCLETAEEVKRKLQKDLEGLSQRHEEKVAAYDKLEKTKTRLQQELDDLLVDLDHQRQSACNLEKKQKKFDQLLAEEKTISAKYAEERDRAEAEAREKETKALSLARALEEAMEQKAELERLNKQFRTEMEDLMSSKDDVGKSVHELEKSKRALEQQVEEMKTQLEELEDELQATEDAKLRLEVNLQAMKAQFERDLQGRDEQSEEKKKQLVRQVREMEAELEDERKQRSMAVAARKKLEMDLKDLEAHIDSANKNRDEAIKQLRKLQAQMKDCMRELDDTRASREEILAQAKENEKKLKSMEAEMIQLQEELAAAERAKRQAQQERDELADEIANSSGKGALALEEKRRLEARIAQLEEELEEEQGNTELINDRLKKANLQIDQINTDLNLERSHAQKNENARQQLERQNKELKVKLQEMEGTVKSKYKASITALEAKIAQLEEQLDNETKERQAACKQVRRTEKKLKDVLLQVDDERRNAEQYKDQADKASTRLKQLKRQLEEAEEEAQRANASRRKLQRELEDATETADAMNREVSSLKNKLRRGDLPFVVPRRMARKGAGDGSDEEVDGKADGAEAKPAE

Target: MYH14 (human (endogenous in Ishikawa and KLE)) (UniProt Q7Z406)
Assay: co-IP; Pierce Co-IP kit, antibody covalently coupled to amine-reactive resin; lysates of Ishikawa and KLE cells, overnight at 4 °C; western blot; also cells treated with sesamolin for 48 h

MYH9 (from UniProt P35579 1-1960)
binding: binds
